In patent US12180509B2, “Methods for reprograming non-pluripotent cells into pluripotent stem cells” (Beihao Stem Cell and Regenerative Medicine Research …, priority 2015, dated 2024):
Some of these results come from one statement about several compounds together. For at least one compound, name, drawing or mass did not settle the structure.

Tested on: MEFs
Test: XEN-like colony formation from fibroblasts (stage 1)
Assay type: cell-based, mouse
Settings: versus VC6TF with 20 μM CHIR99021, 16 days

CC1(C)CCC(C)(C)c2cc(C(=O)Nc3ccc(C(=O)O)cc3)ccc21 [AM580, 4-[(5,6,7,8-Tetrahydro-5,5,8,8-tetramethyl-2-naphthalenyl)carboxamido]benzoic acid]
formation of XEN-like colonies enhanced: 2 to 3 fold
